The record followed here is patent US20190185544A1, “COMPOSITIONS AND METHODS OF MODULATING ABETA PROTEIN” (University of South Florida, priority 2016, published 2019).

By UniProt entry, the sequences of proteins in these tests, tags left out. Residues count along the entry.
UniProt P05067, residues 18-770: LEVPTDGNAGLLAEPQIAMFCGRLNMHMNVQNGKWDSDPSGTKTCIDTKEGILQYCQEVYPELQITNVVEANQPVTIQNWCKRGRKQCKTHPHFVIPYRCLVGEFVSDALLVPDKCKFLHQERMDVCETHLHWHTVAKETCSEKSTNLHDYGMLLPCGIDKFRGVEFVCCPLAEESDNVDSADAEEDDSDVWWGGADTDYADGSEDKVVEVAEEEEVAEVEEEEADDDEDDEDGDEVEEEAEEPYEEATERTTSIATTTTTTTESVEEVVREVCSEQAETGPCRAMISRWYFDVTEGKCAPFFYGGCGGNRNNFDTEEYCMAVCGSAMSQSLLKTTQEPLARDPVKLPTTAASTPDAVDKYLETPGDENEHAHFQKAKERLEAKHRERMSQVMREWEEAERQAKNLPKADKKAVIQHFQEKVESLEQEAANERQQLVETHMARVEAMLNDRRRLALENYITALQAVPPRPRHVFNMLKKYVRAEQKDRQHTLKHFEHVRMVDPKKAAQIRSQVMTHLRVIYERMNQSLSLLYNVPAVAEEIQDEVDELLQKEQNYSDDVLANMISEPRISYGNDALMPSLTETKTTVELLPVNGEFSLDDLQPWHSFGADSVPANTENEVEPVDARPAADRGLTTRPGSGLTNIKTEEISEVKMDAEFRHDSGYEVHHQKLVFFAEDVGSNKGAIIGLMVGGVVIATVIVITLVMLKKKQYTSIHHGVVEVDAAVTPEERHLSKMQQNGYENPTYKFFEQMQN

Assay [1] deals with APP in brain homogenates of TgAPPwt mice (UniProt P05067). Description: co-IP from brain homogenates, WB.
Assay [2] has the same target. Description: co-IP from brain homogenates with 6H3B5 or pN-APP, WB with 6E10 and mApoE.

Results are given in words; binding and its absence hold for the method and conditions named. In cells and extracts the contact can be indirect. Some results given as binding are weak or reduced against the parent protein; the word gives no strength.

B1: endogenous apoE in brain homogenates of TgAPPwt mice (ligand, mouse, UniProt P08226 19-311, looked up)
chain: EGEPEVTDQLEWQSNQPWEQALNRFWDYLRWVQTLSDQVQEELQSSQVTQELTALMEDTMTEVKAYKKELEEQLGPVAEETRARLGKEVQAAQARLGADMEDLRNRLGQYRNEVHTMLGQSTEEIRARLSTHLRKMRKRLMRDAEDLQKRLAVYKAGAREGAERGVSAIRERLGPLVEQGRQRTANLGAGAAQPLRDRAQAFGDRIRGRLEEVGNQARDRLEEVREHMEEVRSKMEEQTQQIRLQAEIFQARLKGWFEPIVEDMHRQWANLMEKIQASVATNPIITPVAQENQ
For the molecule B1, the binding entry in assay [1] and in assay [2] was “binds” throughout.
